US20220074941A1, “HSP90 COMBINATION THERAPY” (Sloan-Kettering Institute for Cancer Research, priority 2011, published 2022)
At least one compound was matched to its structure with a doubt left.

Columns and labels:
[1] = tested on: Hsp90 from SKBr3 cellular extracts; experiment: Fluorescence polarization (FP) competition assay with GM-cy3B; conditions: SKBr3 lysate, 4° C. for 24 h, read-out: IC50 (nM), binding affinity for Hsp90 from SKBr3 cellular extracts
From the text: The attachment of small molecules to a solid support is a very useful method to probe their target and the target's interacting partners. […] Perhaps the most crucial aspects in designing such chemical probes are determining the appropriate site for attachment of the small molecule ligand, and designing an appropriate linker between the molecule and the solid support. Our strategy to design Hsp90 chemical probes entails several steps. First, in order to validate the optimal linker length and its site of attachment to the Hsp90 ligand, the linker-modified ligand was docked onto an appropriate X-ray crystal structure of Hsp90α. Second, the linker-modified ligand was evaluated in a fluorescent polarization (FP) assay that measures competitive binding to Hsp90 derived from a cancer cell extract. […] These steps are important to ensure that the solid-support immobilized molecules maintain a strong affinity for Hsp90. […]
Briefly, FP measurements were performed on an Analyst GT instrument (Molecular Devices, Sunnyvale, Calif.). […] The assay plate was incubated on a shaker at 4° C. for 24 h and the FP values in mP were measured. […] All experimental data were analyzed using SOFTmax Pro 4.3.1 and plotted using Prism 4.0 (Graphpad Software Inc., San Diego, Calif.).

359 kinases = experiment: scanMAX kinase screen (Ambit); format: binding; conditions: 10 μM
[2] = tested on: c-Kit and IGF-IR in MDA-MB-468 cells; experiment: Western blot of Hsp90 onco-client proteins after PU-H71 treatment; format: cell-based; conditions: 5 μM, 24 h
K562 cells = experiment: Western blot of proteins in treated K562 cells; format: cell-based; conditions: 24 h
Procedure: FIGS. 5a-5f. […] (a) Hsp90 complexes in K562 extracts were isolated by precipitation with H9010, a non-specific IgG, or by PU-H71- or Control-beads. Control beads contain ethanolamine, an Hsp90-inert molecule. Proteins in pull-downs were analyzed by Western blot. (b,c) Single or sequential immuno- and chemical-precipitations, as indicated, were conducted in K562 extracts with H9010 and PU-beads at the indicated frequency and in the shown sequence. Proteins in the pull-downs and in the remaining supernatant were analyzed by WB. NS=non-specific. […] (e) Expression of proteins in Hsp70-knocked-down cells was analyzed by Western blot (left) and changes in protein levels presented in relative luminescence units (RLU) (right). Control=scramble siRNA. […] Proteins in the pull-downs and in the remaining supernatant were analyzed by Western blot. […]
FIGS. 8a-8h. […] Proteins in the pull-downs and in the remaining supernatant were analyzed by WB. […] Proteins were analyzed by WB (upper), quantified by densitometry and graphed against treatment time (lower). […] (f) Quantitative chromatin immunoprecipitation assays (QChIP) performed with STAT5 or Hsp90 antibodies vs. IgG control for two known STAT5 target genes (CCND2 and […]).
Protein concentrations were determined using BCA kit (Pierce) according to the manufacturer's instructions. […]

[3] = tested on: STAT5a and STAT5b in K562 cells; experiment: Activated STAT5 DNA binding assay (ELISA-based, TransAM); format: cell-based; conditions: 1 and 10 μM, 24 h

CC(C)NCCCn1c(Sc2cc3c(cc2I)OCO3)nc2c(N)ncnc21 [PU-H71, 8-(6-Iodo-benzo[1,3]dioxol-5-ylsulfanyl)-9-(3-isopropylamino-propyl)-9H-purin-6-ylamine]
IC50 [1]: 22.4 nM | kinase hits in scanMAX screen (359 kinases): Only SNARK (NUAK family SNFl-like kinase 2) (red dot on the kinase tree) appears as a potential low affinity kinase hit | steady-state levels of c-Kit and IGF-IR [2]: reduction in the steady-state levels | degradation of Bcr-Abl compared with Abl (K562 cells): much more susceptible to degradation | STAT5 activation and DNA binding [3]: partially abrogated, in a dose-dependent manner
